The values below come from paper PMC11260364.

One assay has as its target T1, Ephrin-B1 (UniProt P98172).
T1 sequence: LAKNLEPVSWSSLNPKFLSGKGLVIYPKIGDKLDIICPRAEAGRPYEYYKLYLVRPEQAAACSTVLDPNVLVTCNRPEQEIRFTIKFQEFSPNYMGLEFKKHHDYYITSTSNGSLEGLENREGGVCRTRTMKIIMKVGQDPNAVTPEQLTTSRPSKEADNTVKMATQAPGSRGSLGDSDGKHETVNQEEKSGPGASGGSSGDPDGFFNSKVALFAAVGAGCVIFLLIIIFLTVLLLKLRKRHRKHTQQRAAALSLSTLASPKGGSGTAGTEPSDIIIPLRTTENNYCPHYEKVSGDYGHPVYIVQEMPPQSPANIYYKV
The assay can be described thus: co-IP; co-immunoprecipitation of ZIP4 and Ephrin-B1 (Fig. 1C); cells, antibodies and conditions not told in the text shown.

For another assay, the target named is T2, WT-Eprhin-B1 (wild type) (UniProt P98172).
T2 sequence: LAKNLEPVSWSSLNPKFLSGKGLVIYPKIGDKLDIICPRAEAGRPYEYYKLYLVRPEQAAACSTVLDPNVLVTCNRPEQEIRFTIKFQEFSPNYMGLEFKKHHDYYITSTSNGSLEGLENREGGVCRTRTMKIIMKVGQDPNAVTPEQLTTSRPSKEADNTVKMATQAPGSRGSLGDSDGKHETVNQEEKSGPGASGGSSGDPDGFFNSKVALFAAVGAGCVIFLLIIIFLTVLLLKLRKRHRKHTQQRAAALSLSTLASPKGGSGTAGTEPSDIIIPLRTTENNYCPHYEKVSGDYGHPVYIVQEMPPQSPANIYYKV
The assay can be described thus: co-IP; HEK293T cells co-transfected with Flag-tagged ZIP4 and WT or deletion mutants of Ephrin-B1; lysates immunoprecipitated with HA antibody; immunoblotted with HA or Flag antibodies. Background: Immunoblotting shows a protein as a band on a membrane.

No constants are given. Whether binding was seen depends on the method and setting. In cells and extracts the contact can be indirect. Some results given as binding are weak or reduced against the parent protein; the word gives no strength. For some assays here: Tags and fused reporters may be left off the sequences shown.

B1: Zrt-/Irt-like protein 4 (ZIP4) (protein, UniProt Q6P5W5 23-647)
chain: SPPAGLLSLLTSGQGALDQEALGGLLNTLADRVHCANGPCGKCLSVEDALGLGEPEGSGLPPGPVLEARYVARLSAAAVLYLSNPEGTCEDARAGLWASHADHLLALLESPKALTPGLSWLLQRMQARAAGQTPKMACVDIPQLLEEAVGAGAPGSAGGVLAALLDHVRSGSCFHALPSPQYFVDFVFQQHSSEVPMTLAELSALMQRLGVGREAHSDHSHRHRGASSRDPVPLISSSNSSSVWDTVCLSARDVMAAYGLSEQAGVTPEAWAQLSPALLQQQLSGACTSQSRPPVQDQLSQSERYLYGSLATLLICLCAVFGLLLLTCTGCRGVTHYILQTFLSLAVGAVTGDAVLHLTPKVLGLHTHSEEGLSPQPTWRLLAMLAGLYAFFLFENLFNLLLPRDPEDLEDGPCGHSSHSHGGHSHGVSLQLAPSELRQPKPPHEGSRADLVAEESPELLNPEPRRLSPELRLLPYMITLGDAVHNFADGLAVGAAFASSWKTGLATSLAVFCHELPHELGDFAALLHAGLSVRQALLLNLASALTAFAGLYVALAVGVSEESEAWILAVATGLFLYVALCDMLPAMLKVRDPRPWLLFLLHNVGLLGGWTVLLLLSLYEDDITF
For the molecule B1, the binding entry with Ephrin-B1 is reported as “binds”.

B2: Flag-tagged ZIP4 (SLC39A4) (protein, UniProt Q6P5W5 23-647)
chain: SPPAGLLSLLTSGQGALDQEALGGLLNTLADRVHCANGPCGKCLSVEDALGLGEPEGSGLPPGPVLEARYVARLSAAAVLYLSNPEGTCEDARAGLWASHADHLLALLESPKALTPGLSWLLQRMQARAAGQTPKMACVDIPQLLEEAVGAGAPGSAGGVLAALLDHVRSGSCFHALPSPQYFVDFVFQQHSSEVPMTLAELSALMQRLGVGREAHSDHSHRHRGASSRDPVPLISSSNSSSVWDTVCLSARDVMAAYGLSEQAGVTPEAWAQLSPALLQQQLSGACTSQSRPPVQDQLSQSERYLYGSLATLLICLCAVFGLLLLTCTGCRGVTHYILQTFLSLAVGAVTGDAVLHLTPKVLGLHTHSEEGLSPQPTWRLLAMLAGLYAFFLFENLFNLLLPRDPEDLEDGPCGHSSHSHGGHSHGVSLQLAPSELRQPKPPHEGSRADLVAEESPELLNPEPRRLSPELRLLPYMITLGDAVHNFADGLAVGAAFASSWKTGLATSLAVFCHELPHELGDFAALLHAGLSVRQALLLNLASALTAFAGLYVALAVGVSEESEAWILAVATGLFLYVALCDMLPAMLKVRDPRPWLLFLLHNVGLLGGWTVLLLLSLYEDDITF
Regarding B2, the binding entry with WT-Eprhin-B1 (wild type) was “binds”.
